Source: PubChem BioAssay AID1159506 (NCATS, 2015).

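Luminescence from an EWS-FLI1 target-promoter (NR0B1) reporter, set against a CMV-promoter reporter, two days after silencing single genes in TC32 Ewing sarcoma cells.
Each siRNA was applied at 20 nM.
A z-score of the log NR0B1-over-CMV signal, less the median of siRNAs with the same seed; more negative means a stronger specific loss of the NR0B1 reporter.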

The strongest results of the screen are mostly left out here.
Sequences are the guide (antisense) strand, without overhang.

| siRNA | target gene | seed-corrected z-score |
|---|---|---|
| `UGUUGUUCCCUCUUUGAUC` | GSTA12P | -0.01803 |
| `AUUACGCUGAGAAUAUUCC` | SLC17A1 | -0.09989 |
| `AAAGCUGUAUACAUCGUGC` | RIPK4 | 0.3615 |
| `UAUUUAGUCGUCGCGAUUU` | CCBE1 | -0.2743 |
| `UUCUGUGCUGUCUAAAUGU` | SMCP | 1.202 |
| `UCGCAUAUAAGAACGAUGC` | MMGT1 | 0.8284 |
| `AUUCGACCGACUGUUGUCC` | ANP32C | -1.179 |
| `UUUGGUGAAAGUUGAAGGG` | C10orf67 | -0.4777 |
| `UUUGUAGCCAGCAAAUAGC` | POLR2J3 | -1.298 |
| `UCACGUUGAAGCUCAGCUC` | MYO1F | -0.07196 |
| `AUAUAGGUCAGCACUAGGC` | GBP3 | -0.5926 |
| `UUGGUAUUUACCUAUCUAC` | CSF3 | 1.934 |
| `UACGUUGAAAGCCUGGAUC` | ATP6AP1 | -0.05694 |
| `UUCGUUCUCAAGUACCAGC` | ASCL4 | 0.7883 |
| `UGACUUUAAGUCAAUAUCC` | DIEXF | 0.2287 |
| `UGCUUUGCGAUUAAAAACC` | ZNF525 | -1.763 |
| `UCUAAUGCGAUGUAUUUGG` | GTPBP4 | 0.5883 |
| `AAUGAGAAUGUUCCCAGUG` | OR10W1 | -0.4466 |
| `UAUUUUUCAUCGUAAUCAC` | PIEZO2 | -0.2113 |
| `AUCUUAUCAAGCCCAUUUG` | CCT5 | 0.6357 |
| `UCCAGUAUAAAGCACCACC` | AS3MT | 1.345 |
| `UUUAAGCACUGCACGAUAC` | C17orf62 | 2.029 |
| `UACCUUCGAACUAUAAGCG` | CCAR2 | 1.066 |
| `AUAGUAUACCUCAUUGAUG` | DYRK1B | 0.2528 |
| `UUUCAUUGUACUGGAAUGU` | ALG1L6P | 0.1307 |
| `UCUAUGAUAUCCUCCAGCG` | CNNM1 | 0.07811 |
| `AUUUCAGUUAUUCCGAACG` | GNG7 | 0.8768 |
| `AUACAUAUGAUGAAGAGAG` | OR5M8 | 1.839 |
| `AGGUAGUUCAGAUAGGUCC` | CLCF1 | -1.85 |
| `AUGUUUUCCAUGAUGGUCG` | ABCB8 | -0.1037 |
| `UUUGGAAGCAGGAUCGCCC` | GRN | 0.03829 |
| `UUGAUUACAACAGGGAAUG` | MDH1 | 0.614 |
| `UGAGUGUUCUUCACGAGGC` | CYP1A2 | -1.253 |
| `UUAUAGCUAGUAUAUCUGC` | BNIP2 | -0.5308 |
| `UUGGGUCACACUCUCCACU` | PSMA5 | 1.276 |
| `AGUGUUAUUCCACCUGUCC` | GLS | 0.6382 |
| `UGUUUAAAGACAGUGCCUG` | SERPINB9 | -1.375 |
| `UUGGGUGUGAGUACAAGAG` | NEU3 | 0.601 |
| `UAAUGGUGAAGUCUGGUAC` | MPI | -1.215 |
| `UACUCUUUUUCUAGGUUGG` | FAM161A | -1.384 |
| `UGAGUCCAUAGGACAGUGC` | OR51M1 | 0.1159 |
| `UAAUGUUUCUGGUGCACCC` | VEZF1 | -0.7969 |
| `UUCCAUGAGAUUUCAAGCU` | SPINK14 | -0.06365 |
| `UCCAUUUCAAUGGCUAUGG` | FRG1 | -0.5462 |
| `UUCAUAAUCUGAGAGACGG` | FHAD1 | 0.1684 |
| `UUAAGUACAUCGCAAAUUC` | CSNK1A1 | -1.287 |
| `UACAAGCACAGAGUUUAAG` | ARPC4 | 1.204 |
| `ACCGUGAUAAGUUUUCGCU` | UMAD1 | 0.3715 |
| `UUCGGAGUACUUCUGGUUU` | MOBP | -0.1364 |
| `UCAUGGAUAGGUGUGAUGA` | PSMF1 | -0.06582 |
| `UGCCUUUAAGCUGAAGCCC` | NUP62 | -0.2306 |
| `UUCUGGAUCUCAUCGAUGG` | DDB1 | 0.3165 |
| `UUAUCCAACGGGAAGAAGC` | CCZ1B | -0.04368 |
| `UAACAUUGUAGACUCUUCC` | RPL21 | -1.109 |
| `UUGCGGACCUUAAAGCAGU` | UQCC3 | 0.357 |
| `UGCUGUAGAGGUGAGGUCC` | PSMB7 | 0.1036 |
| `UGAUUUUUGAGUGAAGCUC` | ZNF160 | 1.008 |

The first 7 entries again:

{"sirna": "UGUUGUUCCCUCUUUGAUC", "target gene": "GSTA12P", "seed-corrected z-score": "-0.01803"}
{"sirna": "AUUACGCUGAGAAUAUUCC", "target gene": "SLC17A1", "seed-corrected z-score": "-0.09989"}
{"sirna": "AAAGCUGUAUACAUCGUGC", "target gene": "RIPK4", "seed-corrected z-score": "0.3615"}
{"sirna": "UAUUUAGUCGUCGCGAUUU", "target gene": "CCBE1", "seed-corrected z-score": "-0.2743"}
{"sirna": "UUCUGUGCUGUCUAAAUGU", "target gene": "SMCP", "seed-corrected z-score": "1.202"}
{"sirna": "UCGCAUAUAAGAACGAUGC", "target gene": "MMGT1", "seed-corrected z-score": "0.8284"}
{"sirna": "AUUCGACCGACUGUUGUCC", "target gene": "ANP32C", "seed-corrected z-score": "-1.179"}